Compound in the assay: Cc1cc(ccc1-c1ccccc1)C(=O)N1CCCN(CC1)C(=O)CCl [compound 10]
The assay is described as follows: probe-labelled cysteine peptide fold change vs DMSO (competition) (log2 fold change); higher = less target engagement (more negative = stronger competition). As to conditions: THP-1, incubation time: 4 h.

Amino acid sequences for entries named in this document (tags omitted). A change or cut given only in a name is not applied to a line headed by its entry.
UniProt Q96BN8, whole entry, looked up: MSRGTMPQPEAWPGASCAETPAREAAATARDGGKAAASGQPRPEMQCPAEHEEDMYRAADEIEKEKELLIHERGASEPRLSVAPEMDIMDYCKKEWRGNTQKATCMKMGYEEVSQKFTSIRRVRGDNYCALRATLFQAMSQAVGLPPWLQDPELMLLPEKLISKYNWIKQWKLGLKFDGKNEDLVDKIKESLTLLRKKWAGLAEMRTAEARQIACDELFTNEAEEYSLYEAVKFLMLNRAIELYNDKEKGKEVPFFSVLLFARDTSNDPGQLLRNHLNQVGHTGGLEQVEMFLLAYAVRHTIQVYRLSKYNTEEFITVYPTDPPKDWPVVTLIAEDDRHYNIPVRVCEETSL
UniProt Q9UNF0: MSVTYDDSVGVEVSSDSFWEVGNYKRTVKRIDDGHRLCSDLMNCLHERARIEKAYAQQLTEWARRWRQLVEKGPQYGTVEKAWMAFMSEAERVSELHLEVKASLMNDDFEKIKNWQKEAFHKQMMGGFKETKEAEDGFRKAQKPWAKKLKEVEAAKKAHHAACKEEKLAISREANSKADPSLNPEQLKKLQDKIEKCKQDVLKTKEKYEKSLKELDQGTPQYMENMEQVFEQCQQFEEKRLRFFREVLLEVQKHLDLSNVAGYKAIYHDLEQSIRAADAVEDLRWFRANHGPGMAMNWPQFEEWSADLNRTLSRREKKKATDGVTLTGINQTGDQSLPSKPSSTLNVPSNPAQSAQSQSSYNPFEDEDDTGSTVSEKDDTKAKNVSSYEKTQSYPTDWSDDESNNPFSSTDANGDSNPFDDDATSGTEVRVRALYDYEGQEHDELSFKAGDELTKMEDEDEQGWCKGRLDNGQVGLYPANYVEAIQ
UniProt O60890: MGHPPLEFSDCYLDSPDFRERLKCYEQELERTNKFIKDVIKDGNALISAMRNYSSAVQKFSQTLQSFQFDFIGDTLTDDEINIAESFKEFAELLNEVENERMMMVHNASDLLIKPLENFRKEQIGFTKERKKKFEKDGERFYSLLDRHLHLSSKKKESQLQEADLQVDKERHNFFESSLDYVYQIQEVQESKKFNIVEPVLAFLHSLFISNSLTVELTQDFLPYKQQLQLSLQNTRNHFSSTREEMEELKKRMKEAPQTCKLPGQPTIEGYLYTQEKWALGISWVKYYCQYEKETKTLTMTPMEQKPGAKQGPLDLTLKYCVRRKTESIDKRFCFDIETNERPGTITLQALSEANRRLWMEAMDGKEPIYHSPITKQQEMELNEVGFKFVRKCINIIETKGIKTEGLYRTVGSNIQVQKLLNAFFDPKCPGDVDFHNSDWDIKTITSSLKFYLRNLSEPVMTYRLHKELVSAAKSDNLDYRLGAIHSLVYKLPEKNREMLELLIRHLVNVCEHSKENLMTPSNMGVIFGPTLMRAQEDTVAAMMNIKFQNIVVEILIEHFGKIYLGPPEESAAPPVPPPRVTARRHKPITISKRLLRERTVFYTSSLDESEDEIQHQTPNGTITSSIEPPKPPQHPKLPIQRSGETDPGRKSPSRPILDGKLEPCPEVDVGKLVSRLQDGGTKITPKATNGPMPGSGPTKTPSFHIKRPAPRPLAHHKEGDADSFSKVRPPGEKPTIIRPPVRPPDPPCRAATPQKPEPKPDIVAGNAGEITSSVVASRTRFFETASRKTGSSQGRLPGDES
UniProt Q9NVE7: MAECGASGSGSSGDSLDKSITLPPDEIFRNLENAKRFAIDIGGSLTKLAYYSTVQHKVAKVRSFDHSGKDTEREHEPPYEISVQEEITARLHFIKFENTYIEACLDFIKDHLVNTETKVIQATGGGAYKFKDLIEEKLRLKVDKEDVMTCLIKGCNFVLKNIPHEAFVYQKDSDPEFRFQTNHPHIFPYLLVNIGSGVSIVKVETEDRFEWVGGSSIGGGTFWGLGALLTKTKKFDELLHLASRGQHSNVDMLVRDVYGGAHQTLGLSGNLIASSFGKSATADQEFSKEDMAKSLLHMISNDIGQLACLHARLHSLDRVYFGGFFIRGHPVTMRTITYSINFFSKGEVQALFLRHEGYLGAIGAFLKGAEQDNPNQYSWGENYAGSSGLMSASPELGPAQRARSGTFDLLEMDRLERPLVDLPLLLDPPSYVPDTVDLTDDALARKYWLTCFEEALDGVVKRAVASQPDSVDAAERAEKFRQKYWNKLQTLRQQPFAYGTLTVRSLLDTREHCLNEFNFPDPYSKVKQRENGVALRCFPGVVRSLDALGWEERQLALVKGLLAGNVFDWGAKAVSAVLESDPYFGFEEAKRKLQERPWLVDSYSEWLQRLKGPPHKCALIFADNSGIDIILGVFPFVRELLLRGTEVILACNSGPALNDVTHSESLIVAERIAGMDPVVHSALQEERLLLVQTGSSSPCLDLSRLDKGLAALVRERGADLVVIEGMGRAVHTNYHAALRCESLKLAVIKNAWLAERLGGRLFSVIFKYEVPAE
UniProt Q9ULE6: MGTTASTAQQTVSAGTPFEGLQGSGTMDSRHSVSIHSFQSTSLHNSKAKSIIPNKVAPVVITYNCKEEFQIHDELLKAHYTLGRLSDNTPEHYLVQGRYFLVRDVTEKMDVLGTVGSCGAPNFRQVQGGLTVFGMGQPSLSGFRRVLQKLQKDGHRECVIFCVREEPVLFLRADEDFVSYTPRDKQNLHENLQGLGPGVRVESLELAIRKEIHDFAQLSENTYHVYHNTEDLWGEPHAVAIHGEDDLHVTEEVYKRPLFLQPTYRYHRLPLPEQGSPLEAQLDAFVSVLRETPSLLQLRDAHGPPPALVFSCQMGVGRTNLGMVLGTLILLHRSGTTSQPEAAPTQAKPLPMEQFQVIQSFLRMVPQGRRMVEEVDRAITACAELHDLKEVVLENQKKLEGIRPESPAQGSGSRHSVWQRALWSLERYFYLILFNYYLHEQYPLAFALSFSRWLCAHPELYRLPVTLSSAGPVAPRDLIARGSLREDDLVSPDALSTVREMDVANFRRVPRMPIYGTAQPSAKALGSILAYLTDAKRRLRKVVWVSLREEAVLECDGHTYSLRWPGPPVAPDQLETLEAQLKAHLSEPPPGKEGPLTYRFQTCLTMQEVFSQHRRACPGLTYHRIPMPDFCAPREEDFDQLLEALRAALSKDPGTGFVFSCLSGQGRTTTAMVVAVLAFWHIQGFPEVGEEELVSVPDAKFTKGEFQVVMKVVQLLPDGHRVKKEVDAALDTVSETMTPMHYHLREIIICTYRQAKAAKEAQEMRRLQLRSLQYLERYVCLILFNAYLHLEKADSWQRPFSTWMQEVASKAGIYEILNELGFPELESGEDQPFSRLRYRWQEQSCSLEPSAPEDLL
UniProt Q9H0X9: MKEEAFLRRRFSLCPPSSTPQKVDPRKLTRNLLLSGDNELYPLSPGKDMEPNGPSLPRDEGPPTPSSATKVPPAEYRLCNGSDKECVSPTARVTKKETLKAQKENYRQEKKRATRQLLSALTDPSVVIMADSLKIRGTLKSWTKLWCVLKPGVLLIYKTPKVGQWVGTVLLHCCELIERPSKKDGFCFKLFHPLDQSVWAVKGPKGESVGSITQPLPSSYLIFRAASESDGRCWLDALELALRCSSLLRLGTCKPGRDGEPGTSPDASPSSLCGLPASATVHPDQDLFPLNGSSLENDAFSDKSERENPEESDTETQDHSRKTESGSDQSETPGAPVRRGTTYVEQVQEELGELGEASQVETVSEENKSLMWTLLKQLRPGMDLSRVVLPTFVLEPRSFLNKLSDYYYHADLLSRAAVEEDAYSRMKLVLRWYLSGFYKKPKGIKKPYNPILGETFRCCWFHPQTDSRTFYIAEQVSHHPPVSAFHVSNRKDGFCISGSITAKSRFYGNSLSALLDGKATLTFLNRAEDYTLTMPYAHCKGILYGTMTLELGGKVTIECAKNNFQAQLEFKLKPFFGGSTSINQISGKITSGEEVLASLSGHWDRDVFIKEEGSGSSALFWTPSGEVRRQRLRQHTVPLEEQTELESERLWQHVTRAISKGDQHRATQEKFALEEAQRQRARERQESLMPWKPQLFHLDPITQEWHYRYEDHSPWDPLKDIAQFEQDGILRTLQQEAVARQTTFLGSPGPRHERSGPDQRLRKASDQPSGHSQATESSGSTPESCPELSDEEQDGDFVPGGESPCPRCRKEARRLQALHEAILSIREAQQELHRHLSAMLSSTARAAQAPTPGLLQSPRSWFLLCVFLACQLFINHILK
UniProt P22234: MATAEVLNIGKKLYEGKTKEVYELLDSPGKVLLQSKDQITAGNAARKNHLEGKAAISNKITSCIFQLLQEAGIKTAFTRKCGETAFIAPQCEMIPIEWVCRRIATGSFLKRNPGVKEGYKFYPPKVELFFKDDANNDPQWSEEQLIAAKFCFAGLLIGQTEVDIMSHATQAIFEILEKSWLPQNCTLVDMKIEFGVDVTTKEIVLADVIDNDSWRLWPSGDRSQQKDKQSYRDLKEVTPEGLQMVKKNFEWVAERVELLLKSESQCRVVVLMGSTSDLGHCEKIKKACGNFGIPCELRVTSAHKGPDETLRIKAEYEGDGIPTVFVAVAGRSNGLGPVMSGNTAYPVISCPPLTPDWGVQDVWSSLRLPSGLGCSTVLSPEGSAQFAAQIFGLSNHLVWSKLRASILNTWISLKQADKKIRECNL
UniProt P07237: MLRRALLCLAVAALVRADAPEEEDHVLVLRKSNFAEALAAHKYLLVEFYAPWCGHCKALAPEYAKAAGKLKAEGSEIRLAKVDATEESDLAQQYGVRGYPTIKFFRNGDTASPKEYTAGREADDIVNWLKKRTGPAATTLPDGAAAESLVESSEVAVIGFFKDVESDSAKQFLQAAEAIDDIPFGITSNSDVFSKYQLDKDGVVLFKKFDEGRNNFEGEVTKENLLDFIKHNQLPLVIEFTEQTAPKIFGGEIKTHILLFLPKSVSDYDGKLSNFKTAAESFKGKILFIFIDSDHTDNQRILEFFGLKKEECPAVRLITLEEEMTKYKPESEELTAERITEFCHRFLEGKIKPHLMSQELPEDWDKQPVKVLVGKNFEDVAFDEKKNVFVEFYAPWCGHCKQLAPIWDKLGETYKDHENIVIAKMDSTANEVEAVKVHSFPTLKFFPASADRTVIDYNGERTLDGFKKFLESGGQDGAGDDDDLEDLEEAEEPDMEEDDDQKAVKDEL
UniProt O43913: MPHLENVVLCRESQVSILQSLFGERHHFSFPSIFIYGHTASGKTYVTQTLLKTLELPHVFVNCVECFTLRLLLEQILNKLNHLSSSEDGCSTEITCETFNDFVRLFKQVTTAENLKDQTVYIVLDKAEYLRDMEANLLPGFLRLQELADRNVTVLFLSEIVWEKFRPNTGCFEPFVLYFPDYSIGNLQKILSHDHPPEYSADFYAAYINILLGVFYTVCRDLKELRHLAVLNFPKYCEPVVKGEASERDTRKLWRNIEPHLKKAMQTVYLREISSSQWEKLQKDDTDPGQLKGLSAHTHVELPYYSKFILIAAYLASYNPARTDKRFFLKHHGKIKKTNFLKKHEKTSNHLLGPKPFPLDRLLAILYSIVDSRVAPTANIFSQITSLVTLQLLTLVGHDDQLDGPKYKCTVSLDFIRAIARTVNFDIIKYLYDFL
UniProt Q92882: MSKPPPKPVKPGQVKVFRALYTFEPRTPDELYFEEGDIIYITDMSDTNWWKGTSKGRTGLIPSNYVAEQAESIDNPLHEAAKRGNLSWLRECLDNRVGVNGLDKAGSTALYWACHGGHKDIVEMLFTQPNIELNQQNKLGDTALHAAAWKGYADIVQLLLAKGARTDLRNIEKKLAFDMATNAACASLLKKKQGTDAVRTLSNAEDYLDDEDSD
UniProt Q96CV9, whole entry, looked up: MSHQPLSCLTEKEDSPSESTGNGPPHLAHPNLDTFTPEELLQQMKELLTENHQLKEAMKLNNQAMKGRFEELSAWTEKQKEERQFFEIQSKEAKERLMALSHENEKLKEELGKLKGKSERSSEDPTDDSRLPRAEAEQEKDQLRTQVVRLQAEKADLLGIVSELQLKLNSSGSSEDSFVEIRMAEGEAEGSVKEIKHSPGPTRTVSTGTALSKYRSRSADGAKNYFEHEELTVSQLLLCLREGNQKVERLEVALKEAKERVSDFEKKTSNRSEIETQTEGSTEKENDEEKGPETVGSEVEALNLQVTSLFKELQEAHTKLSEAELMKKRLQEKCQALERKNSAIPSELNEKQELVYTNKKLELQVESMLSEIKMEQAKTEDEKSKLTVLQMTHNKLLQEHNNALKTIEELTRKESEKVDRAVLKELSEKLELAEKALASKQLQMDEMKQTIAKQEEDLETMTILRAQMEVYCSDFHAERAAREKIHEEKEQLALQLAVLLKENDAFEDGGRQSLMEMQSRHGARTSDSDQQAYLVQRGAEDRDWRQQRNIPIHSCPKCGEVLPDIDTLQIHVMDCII
UniProt Q15102: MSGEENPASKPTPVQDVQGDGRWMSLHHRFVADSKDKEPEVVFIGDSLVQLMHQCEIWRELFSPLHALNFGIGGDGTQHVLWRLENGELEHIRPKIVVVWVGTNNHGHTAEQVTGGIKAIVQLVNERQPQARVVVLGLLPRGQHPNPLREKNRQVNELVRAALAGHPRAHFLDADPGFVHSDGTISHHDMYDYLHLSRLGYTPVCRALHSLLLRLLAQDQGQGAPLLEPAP

The results in this text go back to the supplement of paper PMC12067093, “Discovery and optimisation of a covalent ligand for TRIM25 and its application to targeted protein ubiquitination” (Chemical Science, 2025).

Some of the results follow.
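Also: competitive profiling in live THP-1 cells: cysteine peptides tagged with an iodoacetamide desthiobiotin (IA-DTB) probe, intensity after compound treatment relative to DMSO-treated cells.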

As for “OSBPL1A_Q9BXW6_340_EDWLEAIEEHSAYSTHYCSQDQLTDEEEEDTVSAADLKK (UniProt Q9BXW6)”, the “probe-labelled cysteine peptide fold change” value by setting is: (10 µM) 0.0682; (50 µM) -0.017.

“OSTC_Q9NRP0_14_VPFLVLECPNLK (UniProt Q9NRP0)”: the “probe-labelled cysteine peptide fold change” value was 0.025 (10 µM) and -0.0744 (50 µM).

Regarding “P2RX4_Q99571_132_SDASCTAGSAGTHSNGVSTGR (UniProt Q99571)”, the “probe-labelled cysteine peptide fold change” value was -0.103 (10 µM) and 0.0623 (50 µM).

Consider “P4HTM_Q9NXG6_156_PLLFEIPGFLTDEECR (UniProt Q9NXG6)”, for which the “probe-labelled cysteine peptide fold change” value (10 µM) was found to be 0.372 and the “probe-labelled cysteine peptide fold change” value (50 µM) came to 0.492.

As to “OSBPL8_Q9BZF1_494_CLWIHPR (UniProt Q9BZF1)”, the “probe-labelled cysteine peptide fold change” value (10 µM) was -0.0195 and the “probe-labelled cysteine peptide fold change” value (50 µM) amounted to 0.0461.

With “OTULIN_Q96BN8_47_AAASGQPRPEMQCPAEHEEDMYR (UniProt Q96BN8)”, the “probe-labelled cysteine peptide fold change” value is, setting by setting: (10 µM) -0.315; (50 µM) -0.133.

For “ORC3_Q9UBD5_10_GCFVFKPNSK (UniProt Q9UBD5)”, the “probe-labelled cysteine peptide fold change” value is, setting by setting: (10 µM) -0.114; (50 µM) -0.311.

On to “PAPOLA_P51003_677_TKTEEDETSEDANCLALSGHDK (UniProt P51003)”, for which the “probe-labelled cysteine peptide fold change” value reads like this: (10 µM) -0.0797; (50 µM) -0.359.

“PARP14_Q460N5_849_AAGPELQADCDQIVKR (UniProt Q460N5)”: the “probe-labelled cysteine peptide fold change” value is -0.298 (10 µM) and -0.644 (50 µM).

With “PACSIN2_Q9UNF0_163_AHHAACK (UniProt Q9UNF0)”, the “probe-labelled cysteine peptide fold change” value (10 µM) amounted to 0.123 and the “probe-labelled cysteine peptide fold change” value (50 µM) is -0.0694.

Consider “OPHN1_O60890_24_CYEQELER (UniProt O60890)”, for which the “probe-labelled cysteine peptide fold change” value (10 µM) was found to be 0.0551 and the “probe-labelled cysteine peptide fold change” value (50 µM) turned out to be 0.338.

“PAPSS2_O95340_155_KIHESAGLPFFEIFVDAPLNICESR (UniProt O95340)”: the “probe-labelled cysteine peptide fold change” value (10 µM) was -0.104 and the “probe-labelled cysteine peptide fold change” value (50 µM) is -0.273.

As for “PANK4_Q9NVE7_699_LLLVQTGSSSPCLDLSR (UniProt Q9NVE7)”, the “probe-labelled cysteine peptide fold change” value (10 µM) was -0.0499 and the “probe-labelled cysteine peptide fold change” value (50 µM) was -0.043.

As for “PARP12_Q9H0J9_85_AHQGSKPGCVGLCAQLHLCR (UniProt Q9H0J9)”, the “probe-labelled cysteine peptide fold change” value reads like this: (10 µM) -0.373; (50 µM) 0.00259.

Regarding “OSBPL9_Q96SU4_720_LFHEDGECWVYDEPLLK (UniProt Q96SU4)”, the “probe-labelled cysteine peptide fold change” value is, setting by setting: (10 µM) -0.239; (50 µM) -0.336.

In the case of “PALD1_Q9ULE6_617_ACPGLTYHR (UniProt Q9ULE6)”, the “probe-labelled cysteine peptide fold change” value (10 µM) was found to be 0.0363 and the “probe-labelled cysteine peptide fold change” value (50 µM) was 0.0663.

Regarding “PALD1_Q9ULE6_65_VAPVVITYNCK (UniProt Q9ULE6)”, the “probe-labelled cysteine peptide fold change” value is, setting by setting: (10 µM) 0.106; (50 µM) -0.15.

Regarding “OSBPL5_Q9H0X9_459_CCWFHPQTDSR (UniProt Q9H0X9)”, the “probe-labelled cysteine peptide fold change” value was 0.0375 (10 µM) and -0.0634 (50 µM).

“OTULIN_Q96BN8_215_QIACDELFTNEAEEYSLYEAVK (UniProt Q96BN8)”: the “probe-labelled cysteine peptide fold change” value reads like this: (10 µM) 0.000893; (50 µM) -0.0215.

With “PAICS_P22234_295_ACGNFGIPCELR (UniProt P22234)”, the “probe-labelled cysteine peptide fold change” value by setting is: (10 µM) -0.117; (50 µM) -0.15.

Regarding “P4HB_P07237_53_YLLVEFYAPWCGHCK (UniProt P07237)”, the “probe-labelled cysteine peptide fold change” value reads like this: (10 µM) -1.15; (50 µM) -1.6.

Regarding “PARP10_Q53GL7_898_RPVEQVLYHGTTAPAVPDICAHGFNR (UniProt Q53GL7)”, the “probe-labelled cysteine peptide fold change” value (10 µM) is 0.225 and the “probe-labelled cysteine peptide fold change” value (50 µM) worked out at 0.209.

As for “PARP1_P09874_845_IEREGECQR (UniProt P09874)”, the “probe-labelled cysteine peptide fold change” value is, setting by setting: (10 µM) 0.221; (50 µM) 0.000728.

On to “PAFAH1B1_P43034_168_LLASCSADMTIK (UniProt P43034)”, for which the “probe-labelled cysteine peptide fold change” value is -0.0343 (10 µM) and 0.213 (50 µM).

Consider “PAFAH2_Q99487_147_SAATTYFCK (UniProt Q99487)”, for which the “probe-labelled cysteine peptide fold change” value is -0.189 (10 µM) and 0.064 (50 µM).

Take “PALD1_Q9ULE6_555_EEAVLECDGHTYSLR (UniProt Q9ULE6)”: the “probe-labelled cysteine peptide fold change” value is -0.126 (10 µM) and 0.408 (50 µM).

Regarding “ORC1_Q13415_529_LLDHTGGCMYISGVPGTGK (UniProt Q13415)”, the “probe-labelled cysteine peptide fold change” value runs as follows: (10 µM) 0.15; (50 µM) -0.0714.

As to “PACSIN2_Q9UNF0_465_MEDEDEQGWCK (UniProt Q9UNF0)”, the “probe-labelled cysteine peptide fold change” value is, setting by setting: (10 µM) 0.113; (50 µM) 0.287.

Turning to “OPHN1_O60890_11_GHPPLEFSDCYLDSPDFR (UniProt O60890)”, the “probe-labelled cysteine peptide fold change” value is, setting by setting: (10 µM) 0.105; (50 µM) 0.129.

For the target “PARK7_Q99497_46_VTVAGLAGKDPVQCSR (UniProt Q99497)”, the “probe-labelled cysteine peptide fold change” value is, setting by setting: (10 µM) -0.287; (50 µM) -0.276.

Turning to “ORC5_O43913_63_TLELPHVFVNCVECFTLR (UniProt O43913)”, the “probe-labelled cysteine peptide fold change” value runs as follows: (10 µM) 0.329; (50 µM) 0.316.

On to “OSBPL5_Q9H0X9_14_FSLCPPSSTPQK (UniProt Q9H0X9)”, for which the “probe-labelled cysteine peptide fold change” value was -0.292 (10 µM) and 0.0347 (50 µM).

For “OSBPL1A_Q9BXW6_303_CFDDTIHGFR (UniProt Q9BXW6)”, the “probe-labelled cysteine peptide fold change” value is -0.154 (10 µM) and 0.0612 (50 µM).

Turning to “OSTF1_Q92882_185_KLAFDMATNAACASLLK (UniProt Q92882)”, the “probe-labelled cysteine peptide fold change” value is, setting by setting: (10 µM) -0.0197; (50 µM) -0.415.

“P4HB_P07237_397_KNVFVEFYAPWCGHCK (UniProt P07237)”: the “probe-labelled cysteine peptide fold change” value reads like this: (10 µM) -0.644; (50 µM) -2.76.

As to “PAICS_P22234_91_KCGETAFIAPQCEMIPIEWVCR (UniProt P22234)”, the “probe-labelled cysteine peptide fold change” value by setting is: (10 µM) 0.107; (50 µM) -0.0751.

Turning to “OPTN_Q96CV9_8_SHQPLSCLTEK (UniProt Q96CV9)”, the “probe-labelled cysteine peptide fold change” value is -0.463 (10 µM) and -0.371 (50 µM).

Take “PAFAH1B3_Q15102_205_LGYTPVCR (UniProt Q15102)”: the “probe-labelled cysteine peptide fold change” value reads like this: (10 µM) 0.223; (50 µM) 0.0983.

On to “PAFAH1B1_P43034_281_EHEHVVECISWAPESSYSSISEATGSETKK (UniProt P43034)”, for which the “probe-labelled cysteine peptide fold change” value runs as follows: (10 µM) 0.0319; (50 µM) -0.0113.
